A short description of this assay: qHTS Assay to Find Inhibitors of Chronic Active B-Cell Receptor Signaling. Conditions: ABC-DLBCL IkBa-CBG/CBR reporter, luminescence ratio (green luciferase fused to IkBa over red control in TMD8 lymphoma cells), 4 h. The essentials:
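Concentration-response series (up to 46 uM) were applied to TMD8 dual-reporter cells for 4 h at 37C with doxycycline. Green/red ratio, after filter-overlap correction, defined %Activity; red signal alone was normalised to basal cells and zero luminescence.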

[1] abbreviates: measured here: CBR red luminescence, cell number.
Where [2] appears, read: measured here: IkBa-CBG green luminescence.

The structures appear in SMILES notation. The list shows a part of the results. Further columns of the screen follow, without active or inactive calls. Most of these compounds were active or inconclusive in the main read-out, so they are no random draw. Potencies come from curve fits of mixed quality, noted in brackets.

Turning to `CN(CC(=O)Nc1ccccc1Cl)C(=O)c1cccc(S(=O)(=O)N2CCN(c3ccc(F)cc3)CC2)c1`, the AC50 under setting [1] was 12.6 µM [rising, partial curve, poor fit]. With `Cc1onc(-c2ccccc2Cl)c1C(=O)Nc1nnc(-c2ccc(Br)cc2)s1`, the AC50 under setting [1] is 0.291 µM [falling, full curve].

For `CCOC(=O)c1cc(-c2ccccc2)n(CC(=O)Nc2ccc(OC)cc2OC)c1C`, under setting [1], the AC50 was 0.398 µM [rising, full curve]. The same measure, in the same setting: the figure for `Cn1nnc2cc(NC(=O)Nc3cccc(Cl)c3)ccc21` is 0.891 µM [rising, full curve, poor fit]; for `NC(=O)c1ccc(N2CCN(c3ccccc3F)CC2)c([N+](=O)[O-])c1` it is 6.31 µM [rising, full curve, poor fit]; for `O=C(CCCCCN1C(=O)c2cccc3cccc(c23)C1=O)NCCO` it is 28.2 µM [falling, single point]. Still for that read-out and setting: the value for `CCn1c2ccccc2c2cc(NC(=O)c3ccc([N+](=O)[O-])cc3)ccc21` was 2.06 µM [rising, partial curve, poor fit]; that for `Cc1cc(C(=O)CCl)c(C)n1-c1cccc(S(=O)(=O)N2CCOCC2)c1` was 11.2 µM [falling, partial curve]. Turning to `Cc1c(C=O)c(C=O)c(C)n1Cc1ccccc1`, the AC50 runs as follows: under setting [1], 16.4 µM [falling, partial curve]; under setting [2], 20.6 µM [rising, partial curve, poor fit]. `C=CCNc1nc(-c2ccc(O)c(C(N)=O)c2)cs1`: the AC50 under setting [1] is 0.411 µM [rising, full curve, poor fit]. Consider `Cc1ccc(S(=O)(=O)Nc2ccc(S(=O)(=O)Nc3cc(C)nc(C)n3)cc2)cc1`, for which the concentration at half-maximal activity (AC50) under setting [1] is 35.5 µM [rising, single point]. `S=C(c1ccc(-c2ccccc2Cl)o1)N1CCCCC1`: the AC50 under setting [1] is 18.4 µM [rising, single point] and the half-maximal activity concentration (AC50) under setting [2] was 23.1 µM [rising, partial curve, poor fit]. Regarding `CCCCNc1c(-c2ccc(-c3ccc(OC)cc3)c(OC)c2)nc2ccccn12`, the AC50 under setting [1] was 29.1 µM [falling, single point]. Still for that read-out and setting: the value for `CC(=O)c1c(COC(=O)c2ccccc2)nc2ccccc2[n+]1[O-]` was 14.6 µM [rising, single point]. On the same count and under the same terms, the figure for `Cc1cc([N+](=O)[O-])cc(/C=N/n2c(C)nc3ccccc3c2=O)c1O` is 0.447 µM [falling, full curve, poor fit]; for `O=C(Cn1cnc2cc([N+](=O)[O-])ccc2c1=O)Nc1ccccc1Cl` it is 3.98 µM [falling, partial curve, poor fit]; for `CN1CCN(c2nc(-c3cccnc3)nc3scc(-c4ccccc4)c23)CC1` it is 1.26 µM [rising, full curve, poor fit]. As to `CCOc1ccc(NC(=O)Cn2cc(C(=O)CC)c3ccccc32)cc1`, under setting [1], the AC50 was 0.1 µM [rising, full curve, poor fit]. As to `CC(=O)/C(=N/Nc1ccc(Br)cc1)N1CCCc2ccccc21`, the AC50 under setting [2] was 35.5 µM [rising, partial curve, poor fit].

Consider `O=C(CSc1nnc(-c2ccc(F)cc2)c2ccccc12)Nc1c(F)cccc1F`, for which, under setting [1], the AC50 is 29.1 µM [falling, single point]. For `O=C(N/N=C/c1cc(Br)c(Br)o1)C(O)c1ccccc1` (stereo unspecified), the AC50 under setting [1] was 20.6 µM [falling, single point]. As to `C=C1C(O)[C@@H]2O[C@]3(CC[C@H](/C=C/C(C)[C@@H]4CC(C)=CC5(O[C@H](C[C@@](C)(O)CO)CCC5O)O4)O3)CC[C@H]2O[C@@H]1C(O)CC(C)[C@H]1OC2(CCCCO2)CCC1C` (stereo partly specified), the AC50 under setting [1] was 0.92 µM [rising, full curve, poor fit] and the AC50 under setting [2] was 2.31 µM [falling, partial curve]. As for `O=C(NC(=S)Nc1cccnc1Cl)c1ccc(Cl)cc1`, the AC50 under setting [1] is 2.51 µM [falling, full curve, poor fit]. The same measure, in the same setting: the figure for `COc1ccccc1CNS(=O)(=O)c1ccc2c(c1)N(C(C)=O)CCO2` is 35.5 µM [falling, single point].

Take `O=C(Nc1ccc(N2CCOCC2)c(Cl)c1)c1cc2ccccc2o1`: the AC50 under setting [1] is 16.4 µM [falling, single point]. On the same count and under the same terms, the figure for `O=Cc1ccc(-c2ccccc2OC(F)(F)F)o1` is 2.91 µM [rising, single point]. Still for that read-out and setting: the value for `Cc1ccnc(NC(=O)c2ccc(S(=O)(=O)c3ccccc3)cc2)c1` was 3.55 µM [falling, partial curve, poor fit]. Turning to `Cc1cccc(N2CCN(S(=O)(=O)c3ccc4c(c3)NC(=O)C(C)S4)CC2)c1C` (stereo unspecified), the AC50 under setting [1] was 12.6 µM [falling, single point]. On the same count and under the same terms, the value for `CCOC(=O)c1c(NC(=O)COC(=O)c2ccc(Cl)nc2)sc(C(=O)N(C)C)c1C` was 1.84 µM [rising, full curve, poor fit]; that for `CC(C)CNC(=O)NC(=O)COC(=O)c1cccc(NS(=O)(=O)c2ccc(F)c(F)c2)c1` was 11.6 µM [falling, partial curve, poor fit]. On to `Cc1c(C(=O)O)oc2c3c(ccc12)OCCO3`, for which the AC50 under setting [2] is 13 µM [rising, partial curve, poor fit]. In the case of `COc1ccc(CCn2c(N)c(C(=O)NCc3ccco3)c3nc4ccccc4nc32)cc1`, the AC50 under setting [1] is 23.1 µM [falling, single point]. Same read-out and setting: the value for `O=c1[nH]cnc2c1sc1nc3c(c(-c4ccc(Cl)cc4)c12)CCC3` was 0.103 µM [rising, full curve, poor fit]. Still for that read-out and setting: the figure for `Oc1cccc(Nc2c3ccccc3nc3ccccc23)c1` is 35.5 µM [falling, single point]. As to `Cc1cc2nc3c(=O)[nH]c(=S)[nH]c3nc2cc1NC(=O)C(F)(F)F`, under setting [1], the AC50 is 2 µM [falling, full curve, poor fit]. The same measure, in the same setting: the figure for `CC1CCCCC1NC(=O)c1ccc(N2CCCC2=O)cc1` (stereo unspecified) is 18.4 µM [falling, partial curve, poor fit]. The same measure, in the same setting: the figure for `O=C(Nc1cccc(C(=O)Nc2ccc(F)cc2F)c1)c1ccccc1` is 11.2 µM [falling, partial curve, poor fit]; for `COc1ccc(CNC(=O)C[C@H]2C[C@H](C(=O)N(C(C)C)C(C)C)[C@@]3(C)c4[nH]c5cc(CCC(=O)N(C)C)ccc5c4CCN3C2=O)cc1OC` it is 32.6 µM [rising, single point].

The values above are taken from PubChem BioAssay AID493014 (National Center for Advancing Translational Sciences (NCATS), 2011).
